Compound in the test: Nc1ncnc2c1ncn2[C@@H]1O[C@H](COP(=O)(O)OP(=O)(O)NP(=O)(O)O)[C@@H](O)[C@H]1O [adenylyl imidodiphosphate]
Kind of test: NP40-soluble protein abundance relative to vehicle (solubility fold change) (ratio); higher = more soluble protein in presence of AMP-PNP. A digest of the protocol:
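Each value is a fold change relative to the detergent-processed vehicle, calculated per replicate from vsn-normalised intensities. Jurkat crude lysate received eight concentrations (0.1 to 10 mM) for 10 min at room temperature and 3 min at 37 °C, then was solubilised in 0.8% NP40 with benzonase (60 min, 4 °C). The ultracentrifuged supernatant was TMT-labelled and run by LC-MS/MS in three independent experiments.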

Protein sequences, listed by entry. Tags and fused reporters are not part of them. Lines headed by an entry give the natural chain unless they say otherwise; changes in a name come on top.
UniProt Q9BSC4: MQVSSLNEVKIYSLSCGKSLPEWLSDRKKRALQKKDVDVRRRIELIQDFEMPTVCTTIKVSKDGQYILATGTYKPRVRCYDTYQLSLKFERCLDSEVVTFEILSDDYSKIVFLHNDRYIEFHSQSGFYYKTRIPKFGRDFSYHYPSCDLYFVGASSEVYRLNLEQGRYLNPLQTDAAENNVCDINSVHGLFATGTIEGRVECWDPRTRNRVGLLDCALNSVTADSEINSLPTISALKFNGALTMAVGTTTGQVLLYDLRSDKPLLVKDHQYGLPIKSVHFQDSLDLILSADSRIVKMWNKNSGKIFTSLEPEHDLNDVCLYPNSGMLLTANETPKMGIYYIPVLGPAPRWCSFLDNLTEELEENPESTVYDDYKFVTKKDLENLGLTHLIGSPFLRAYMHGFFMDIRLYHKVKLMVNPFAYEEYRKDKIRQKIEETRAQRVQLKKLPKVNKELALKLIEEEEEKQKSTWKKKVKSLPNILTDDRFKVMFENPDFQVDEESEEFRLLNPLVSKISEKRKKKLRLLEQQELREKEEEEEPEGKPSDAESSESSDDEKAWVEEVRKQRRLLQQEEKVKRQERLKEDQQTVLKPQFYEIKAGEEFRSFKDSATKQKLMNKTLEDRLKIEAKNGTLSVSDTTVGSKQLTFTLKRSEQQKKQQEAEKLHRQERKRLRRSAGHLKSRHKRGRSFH
UniProt Q9BVP2: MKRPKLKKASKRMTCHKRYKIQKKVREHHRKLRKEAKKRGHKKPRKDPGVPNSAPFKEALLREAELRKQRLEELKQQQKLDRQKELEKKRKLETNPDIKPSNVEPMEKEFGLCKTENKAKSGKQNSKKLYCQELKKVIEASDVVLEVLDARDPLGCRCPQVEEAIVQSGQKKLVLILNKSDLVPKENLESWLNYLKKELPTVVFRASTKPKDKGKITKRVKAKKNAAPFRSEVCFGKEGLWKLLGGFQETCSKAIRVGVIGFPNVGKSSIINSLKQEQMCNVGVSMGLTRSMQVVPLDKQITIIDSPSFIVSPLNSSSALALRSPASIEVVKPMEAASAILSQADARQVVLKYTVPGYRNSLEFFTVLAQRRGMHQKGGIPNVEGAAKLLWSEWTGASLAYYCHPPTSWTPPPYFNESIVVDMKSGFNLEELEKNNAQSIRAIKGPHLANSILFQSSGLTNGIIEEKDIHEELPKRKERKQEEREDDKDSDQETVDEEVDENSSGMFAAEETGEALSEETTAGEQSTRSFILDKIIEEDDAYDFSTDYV
UniProt Q99570, whole entry: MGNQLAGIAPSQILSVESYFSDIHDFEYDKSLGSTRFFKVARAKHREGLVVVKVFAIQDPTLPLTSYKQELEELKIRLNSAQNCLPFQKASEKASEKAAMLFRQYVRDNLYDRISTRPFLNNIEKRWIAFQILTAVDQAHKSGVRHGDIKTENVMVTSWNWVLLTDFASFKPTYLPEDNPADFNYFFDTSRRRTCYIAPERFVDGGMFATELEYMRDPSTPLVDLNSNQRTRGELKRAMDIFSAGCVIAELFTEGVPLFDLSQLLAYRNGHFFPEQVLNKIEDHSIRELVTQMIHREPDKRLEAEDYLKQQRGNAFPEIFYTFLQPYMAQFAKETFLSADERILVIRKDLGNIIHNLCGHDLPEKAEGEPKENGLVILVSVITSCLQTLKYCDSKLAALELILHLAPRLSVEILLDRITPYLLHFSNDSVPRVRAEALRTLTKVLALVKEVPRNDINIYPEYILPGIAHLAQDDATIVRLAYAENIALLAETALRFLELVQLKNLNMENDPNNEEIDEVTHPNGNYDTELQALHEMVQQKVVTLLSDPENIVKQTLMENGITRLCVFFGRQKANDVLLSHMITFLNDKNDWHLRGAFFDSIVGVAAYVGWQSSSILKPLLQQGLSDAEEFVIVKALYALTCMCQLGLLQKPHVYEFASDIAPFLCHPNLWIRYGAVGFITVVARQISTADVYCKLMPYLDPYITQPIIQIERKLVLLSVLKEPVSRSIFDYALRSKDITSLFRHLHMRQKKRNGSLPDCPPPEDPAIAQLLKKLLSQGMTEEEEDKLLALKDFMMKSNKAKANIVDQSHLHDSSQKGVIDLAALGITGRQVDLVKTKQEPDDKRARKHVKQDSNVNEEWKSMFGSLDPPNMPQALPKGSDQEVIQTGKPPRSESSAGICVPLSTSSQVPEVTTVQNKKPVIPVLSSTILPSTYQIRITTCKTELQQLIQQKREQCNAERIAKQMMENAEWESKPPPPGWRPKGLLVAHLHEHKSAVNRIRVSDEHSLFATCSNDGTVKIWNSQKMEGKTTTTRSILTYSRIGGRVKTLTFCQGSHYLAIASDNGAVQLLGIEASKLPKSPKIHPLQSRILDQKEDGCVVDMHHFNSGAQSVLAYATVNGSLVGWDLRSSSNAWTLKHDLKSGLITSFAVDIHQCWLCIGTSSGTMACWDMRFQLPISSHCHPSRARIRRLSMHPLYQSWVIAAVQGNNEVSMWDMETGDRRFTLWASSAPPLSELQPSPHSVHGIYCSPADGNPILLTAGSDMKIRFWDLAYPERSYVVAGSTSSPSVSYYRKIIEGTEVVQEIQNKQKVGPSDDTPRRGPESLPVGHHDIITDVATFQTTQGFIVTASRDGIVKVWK
UniProt Q9BV19: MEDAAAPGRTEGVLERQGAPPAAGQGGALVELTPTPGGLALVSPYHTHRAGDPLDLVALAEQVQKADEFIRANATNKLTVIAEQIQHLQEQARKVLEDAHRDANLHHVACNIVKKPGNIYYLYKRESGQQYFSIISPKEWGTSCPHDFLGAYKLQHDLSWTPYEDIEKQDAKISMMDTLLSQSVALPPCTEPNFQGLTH
UniProt Q99640: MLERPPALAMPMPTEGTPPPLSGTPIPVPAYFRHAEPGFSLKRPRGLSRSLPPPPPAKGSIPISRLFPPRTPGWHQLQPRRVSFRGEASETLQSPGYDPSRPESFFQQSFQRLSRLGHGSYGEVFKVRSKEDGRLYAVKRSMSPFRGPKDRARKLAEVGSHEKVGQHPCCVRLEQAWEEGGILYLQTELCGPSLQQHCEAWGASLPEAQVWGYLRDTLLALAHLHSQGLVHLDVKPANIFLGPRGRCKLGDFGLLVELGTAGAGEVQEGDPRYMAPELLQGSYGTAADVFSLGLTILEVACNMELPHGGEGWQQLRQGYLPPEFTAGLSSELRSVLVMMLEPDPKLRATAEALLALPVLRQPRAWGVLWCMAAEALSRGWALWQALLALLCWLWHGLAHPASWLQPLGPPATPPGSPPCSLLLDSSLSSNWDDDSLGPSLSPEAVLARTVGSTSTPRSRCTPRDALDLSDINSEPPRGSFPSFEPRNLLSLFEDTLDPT
UniProt Q9BX67: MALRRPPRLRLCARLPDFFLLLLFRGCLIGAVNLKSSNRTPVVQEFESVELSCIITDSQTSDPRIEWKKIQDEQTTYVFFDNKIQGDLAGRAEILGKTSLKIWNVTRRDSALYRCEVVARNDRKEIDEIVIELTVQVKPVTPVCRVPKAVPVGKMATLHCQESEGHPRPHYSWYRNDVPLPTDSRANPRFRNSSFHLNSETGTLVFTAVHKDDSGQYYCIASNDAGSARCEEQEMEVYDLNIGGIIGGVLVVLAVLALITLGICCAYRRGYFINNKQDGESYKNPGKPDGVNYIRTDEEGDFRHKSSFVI
UniProt Q9BX95: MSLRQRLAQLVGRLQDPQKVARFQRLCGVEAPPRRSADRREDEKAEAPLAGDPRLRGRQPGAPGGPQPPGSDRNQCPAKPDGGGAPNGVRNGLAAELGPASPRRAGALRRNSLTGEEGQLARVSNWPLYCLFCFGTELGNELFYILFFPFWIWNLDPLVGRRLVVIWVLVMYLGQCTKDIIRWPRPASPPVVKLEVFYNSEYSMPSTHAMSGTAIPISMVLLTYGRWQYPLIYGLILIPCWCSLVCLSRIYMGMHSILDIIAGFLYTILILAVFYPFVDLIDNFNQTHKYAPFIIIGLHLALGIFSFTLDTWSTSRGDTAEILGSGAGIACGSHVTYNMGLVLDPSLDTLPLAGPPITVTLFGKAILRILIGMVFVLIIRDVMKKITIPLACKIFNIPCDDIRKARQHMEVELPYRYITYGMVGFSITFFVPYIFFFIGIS
UniProt Q9BRJ6: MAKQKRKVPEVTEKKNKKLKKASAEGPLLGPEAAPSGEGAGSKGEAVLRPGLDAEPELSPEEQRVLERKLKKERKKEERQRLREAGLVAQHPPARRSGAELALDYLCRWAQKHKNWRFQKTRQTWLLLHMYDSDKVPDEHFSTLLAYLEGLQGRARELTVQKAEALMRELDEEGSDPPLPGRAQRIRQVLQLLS
UniProt Q9BT73: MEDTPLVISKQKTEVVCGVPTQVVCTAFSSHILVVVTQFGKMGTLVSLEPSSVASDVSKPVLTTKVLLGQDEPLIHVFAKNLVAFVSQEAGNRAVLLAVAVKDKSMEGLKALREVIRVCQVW
UniProt Q9BRR6: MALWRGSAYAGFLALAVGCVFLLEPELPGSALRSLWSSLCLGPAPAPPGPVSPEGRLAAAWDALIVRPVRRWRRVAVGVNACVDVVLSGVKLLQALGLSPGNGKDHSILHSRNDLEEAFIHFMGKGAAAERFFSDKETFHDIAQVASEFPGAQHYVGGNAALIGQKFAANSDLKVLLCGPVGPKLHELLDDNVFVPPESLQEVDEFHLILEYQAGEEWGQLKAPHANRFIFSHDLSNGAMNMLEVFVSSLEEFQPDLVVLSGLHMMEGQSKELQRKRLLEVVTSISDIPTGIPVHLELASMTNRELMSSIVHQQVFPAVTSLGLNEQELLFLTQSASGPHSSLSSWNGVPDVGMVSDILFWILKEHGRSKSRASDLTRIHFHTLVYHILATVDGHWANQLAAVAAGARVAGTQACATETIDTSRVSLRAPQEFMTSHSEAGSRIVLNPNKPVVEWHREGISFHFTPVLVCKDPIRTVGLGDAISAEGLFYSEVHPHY
UniProt Q96SK2: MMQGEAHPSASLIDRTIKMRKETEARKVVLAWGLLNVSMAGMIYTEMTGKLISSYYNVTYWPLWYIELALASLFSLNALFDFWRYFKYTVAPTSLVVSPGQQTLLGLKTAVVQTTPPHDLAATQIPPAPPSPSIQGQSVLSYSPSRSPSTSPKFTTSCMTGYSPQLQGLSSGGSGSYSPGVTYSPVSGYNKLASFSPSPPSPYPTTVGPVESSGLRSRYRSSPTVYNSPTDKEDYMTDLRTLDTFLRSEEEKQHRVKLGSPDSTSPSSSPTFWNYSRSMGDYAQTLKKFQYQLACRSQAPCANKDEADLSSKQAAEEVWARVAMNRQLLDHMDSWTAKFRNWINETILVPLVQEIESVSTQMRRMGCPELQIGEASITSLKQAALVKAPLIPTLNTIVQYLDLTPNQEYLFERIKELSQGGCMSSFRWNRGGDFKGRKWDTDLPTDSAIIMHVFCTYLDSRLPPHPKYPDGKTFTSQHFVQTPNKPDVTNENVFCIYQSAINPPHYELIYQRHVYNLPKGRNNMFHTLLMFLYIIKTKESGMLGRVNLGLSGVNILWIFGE
UniProt Q9BQ39: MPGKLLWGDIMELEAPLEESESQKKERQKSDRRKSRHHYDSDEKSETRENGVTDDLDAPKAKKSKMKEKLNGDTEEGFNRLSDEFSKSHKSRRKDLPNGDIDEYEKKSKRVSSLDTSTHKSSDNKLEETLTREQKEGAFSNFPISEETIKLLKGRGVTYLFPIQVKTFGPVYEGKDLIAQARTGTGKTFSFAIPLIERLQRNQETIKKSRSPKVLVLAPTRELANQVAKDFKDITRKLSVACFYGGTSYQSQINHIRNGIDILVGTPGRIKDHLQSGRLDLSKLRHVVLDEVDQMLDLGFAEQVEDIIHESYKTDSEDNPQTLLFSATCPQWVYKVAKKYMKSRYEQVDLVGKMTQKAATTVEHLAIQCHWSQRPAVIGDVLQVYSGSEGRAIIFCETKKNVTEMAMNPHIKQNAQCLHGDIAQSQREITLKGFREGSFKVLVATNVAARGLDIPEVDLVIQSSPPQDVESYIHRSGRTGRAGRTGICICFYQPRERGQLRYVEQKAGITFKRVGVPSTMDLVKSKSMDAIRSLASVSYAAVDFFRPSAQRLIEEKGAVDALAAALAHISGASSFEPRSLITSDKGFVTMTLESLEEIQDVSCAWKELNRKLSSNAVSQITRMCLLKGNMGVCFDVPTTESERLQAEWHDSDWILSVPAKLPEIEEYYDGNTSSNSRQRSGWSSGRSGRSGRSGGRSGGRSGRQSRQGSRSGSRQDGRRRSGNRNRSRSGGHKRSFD
UniProt Q9BRV8: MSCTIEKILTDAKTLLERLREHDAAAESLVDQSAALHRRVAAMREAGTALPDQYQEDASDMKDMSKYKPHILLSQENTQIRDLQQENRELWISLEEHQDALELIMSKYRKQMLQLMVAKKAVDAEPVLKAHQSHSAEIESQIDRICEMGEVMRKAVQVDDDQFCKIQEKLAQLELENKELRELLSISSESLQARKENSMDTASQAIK
UniProt Q99766: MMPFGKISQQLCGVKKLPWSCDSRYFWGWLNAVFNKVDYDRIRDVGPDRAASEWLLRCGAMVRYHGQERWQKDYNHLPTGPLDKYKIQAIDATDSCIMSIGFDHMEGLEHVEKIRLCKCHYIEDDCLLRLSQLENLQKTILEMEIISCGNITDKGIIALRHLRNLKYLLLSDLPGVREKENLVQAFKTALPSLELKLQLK

± gives the standard deviation of the averaged measurements. The list shows a part of the results, in another mix than the full data. Most entries show no effect beyond the scatter of the controls.

Take UniProt Q9BSC4 and related entries: the NP40-soluble protein abundance (concentration: 0.1mM) was 0.954 ± 0.022 and the NP40-soluble protein abundance (concentration: 0.5mM) stood at 0.961 ± 0.016.
As for UniProt Q9BVP2 and related entries, the NP40-soluble protein abundance was found to be 1.04 ± 0.028 (concentration: 0.1mM) and 1.04 ± 0.061 (concentration: 0.5mM).
For PIK3R4 (UniProt Q99570) the same measures were 0.967 ± 0.049 and 0.965 ± 0.053.
The like results for C1orf50 (UniProt Q9BV19) were, in that order, 1.03 ± 0.041 and 1.03 ± 0.055.
As for UniProt Q99640 and related entries, the NP40-soluble protein abundance runs as follows: (concentration: 0.1mM) 0.983 ± 0.012; (concentration: 0.5mM) 0.974 ± 0.029.
The like results for UniProt Q9BX67 were, in that order, 0.994 ± 0.029 and 1.01 ± 0.039.
As to UniProt Q9BXS6 and related entries, the NP40-soluble protein abundance is 0.958 ± 0.013 (concentration: 0.1mM) and 0.954 ± 0.06 (concentration: 0.5mM).
In the case of SGPP1 (UniProt Q9BX95), the NP40-soluble protein abundance is 0.982 ± 0.073 (concentration: 0.1mM) and 0.999 ± 0.076 (concentration: 0.5mM).
On to C7orf50 (UniProt Q9BRJ6), for which the NP40-soluble protein abundance by setting is: (concentration: 0.1mM) 1.02 ± 0.018; (concentration: 0.5mM) 1.02 ± 0.02.
Regarding DDX23 (UniProt Q9BUQ8), the NP40-soluble protein abundance amounted to 1.05 ± 0.019 (concentration: 0.1mM) and 1.02 ± 0.038 (concentration: 0.5mM).
PSMG3 (UniProt Q9BT73): the NP40-soluble protein abundance is 1.02 ± 0.05 (concentration: 0.1mM) and 0.9906 ± 0.0092 (concentration: 0.5mM).
In the case of UniProt Q9BRR6 and related entries, the NP40-soluble protein abundance was determined as 1.04 ± 0.062 (concentration: 0.1mM) and 1 ± 0.082 (concentration: 0.5mM).
On to UniProt Q9BRP4 and related entries, for which the NP40-soluble protein abundance is 0.985 ± 0.031 (concentration: 0.1mM) and 0.961 ± 0.032 (concentration: 0.5mM).
For UTP14A (UniProt Q9BVJ6) the same measures were 1.016 ± 0.0076 and 1.04 ± 0.03.
The like results for UniProt Q96SK2 and related entries were, in that order, 1.01 ± 0.02 and 1.03 ± 0.025.
As to UniProt Q9BQ39 and related entries, the NP40-soluble protein abundance is, setting by setting: (concentration: 0.1mM) 1.08 ± 0.031; (concentration: 0.5mM) 1.15 ± 0.033.
Take PDCD2L (UniProt Q9BRP1): the NP40-soluble protein abundance turned out to be 0.986 ± 0.033 (concentration: 0.1mM) and 1.01 ± 0.032 (concentration: 0.5mM).
On to SIKE1 (UniProt Q9BRV8), for which the NP40-soluble protein abundance (concentration: 0.1mM) is 1.019 ± 0.0026 and the NP40-soluble protein abundance (concentration: 0.5mM) is 1.02 ± 0.015.
Turning to NIPSNAP1 (UniProt Q9BPW8), the NP40-soluble protein abundance runs as follows: (concentration: 0.1mM) 1.03 ± 0.046; (concentration: 0.5mM) 0.996 ± 0.096.
Regarding UniProt Q99766, the NP40-soluble protein abundance runs as follows: (concentration: 0.1mM) 0.973 ± 0.0055; (concentration: 0.5mM) 0.989 ± 0.021.
Consider “UniProt Q9BX66-10|Q9BX66-12|Q9BX66-4|Q9BX66-5|Q9BX66-6|Q9BX66-8|Q9BX66-9”, for which the NP40-soluble protein abundance worked out at 0.993 ± 0.014 (concentration: 0.1mM) and 0.969 ± 0.023 (concentration: 0.5mM).
Regarding RBCK1 (UniProt Q9BYM8), the NP40-soluble protein abundance is, setting by setting: (concentration: 0.1mM) 0.9751 ± 0.0069; (concentration: 0.5mM) 0.965 ± 0.017.

The values are drawn from the supplement of paper PMC6411743.
